Assay results: the supplement of paper PMC10849652
The list shows a part of the results.

The chains behind the UniProt entries cited, without tags or fusion partners. Where a name states a change or a piece, a line headed by the entry shows the natural chain unless it says otherwise.
UniProt Q99550: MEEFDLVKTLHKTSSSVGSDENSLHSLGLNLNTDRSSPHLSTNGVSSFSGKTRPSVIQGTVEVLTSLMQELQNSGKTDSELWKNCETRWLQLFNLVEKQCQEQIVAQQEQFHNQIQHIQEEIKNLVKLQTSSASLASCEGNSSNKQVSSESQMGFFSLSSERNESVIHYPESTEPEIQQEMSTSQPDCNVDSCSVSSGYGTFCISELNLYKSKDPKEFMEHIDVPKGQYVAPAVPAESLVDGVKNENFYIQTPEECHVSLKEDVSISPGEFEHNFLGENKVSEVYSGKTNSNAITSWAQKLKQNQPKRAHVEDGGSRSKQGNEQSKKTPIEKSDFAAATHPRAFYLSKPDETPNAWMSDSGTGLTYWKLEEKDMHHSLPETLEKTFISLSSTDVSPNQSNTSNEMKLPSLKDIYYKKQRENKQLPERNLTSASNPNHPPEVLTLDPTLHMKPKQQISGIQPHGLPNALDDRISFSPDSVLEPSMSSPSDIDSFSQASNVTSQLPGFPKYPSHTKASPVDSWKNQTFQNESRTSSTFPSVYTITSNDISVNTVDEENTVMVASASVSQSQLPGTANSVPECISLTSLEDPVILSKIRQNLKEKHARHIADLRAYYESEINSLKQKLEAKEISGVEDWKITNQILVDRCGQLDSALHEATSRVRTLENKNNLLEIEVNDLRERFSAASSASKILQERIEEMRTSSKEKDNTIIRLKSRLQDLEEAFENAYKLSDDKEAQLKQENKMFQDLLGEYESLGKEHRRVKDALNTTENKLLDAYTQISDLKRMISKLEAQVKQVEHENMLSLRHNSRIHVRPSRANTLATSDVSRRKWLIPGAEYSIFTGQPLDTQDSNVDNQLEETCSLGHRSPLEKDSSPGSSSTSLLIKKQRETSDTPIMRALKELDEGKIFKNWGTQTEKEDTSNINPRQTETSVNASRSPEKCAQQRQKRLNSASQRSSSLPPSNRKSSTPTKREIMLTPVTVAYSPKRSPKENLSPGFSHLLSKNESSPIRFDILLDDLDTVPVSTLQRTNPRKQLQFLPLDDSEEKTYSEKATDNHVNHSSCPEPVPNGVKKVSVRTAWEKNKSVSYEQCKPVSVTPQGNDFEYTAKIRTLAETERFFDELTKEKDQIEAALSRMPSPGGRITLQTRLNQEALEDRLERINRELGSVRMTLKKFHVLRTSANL
UniProt Q9NP71: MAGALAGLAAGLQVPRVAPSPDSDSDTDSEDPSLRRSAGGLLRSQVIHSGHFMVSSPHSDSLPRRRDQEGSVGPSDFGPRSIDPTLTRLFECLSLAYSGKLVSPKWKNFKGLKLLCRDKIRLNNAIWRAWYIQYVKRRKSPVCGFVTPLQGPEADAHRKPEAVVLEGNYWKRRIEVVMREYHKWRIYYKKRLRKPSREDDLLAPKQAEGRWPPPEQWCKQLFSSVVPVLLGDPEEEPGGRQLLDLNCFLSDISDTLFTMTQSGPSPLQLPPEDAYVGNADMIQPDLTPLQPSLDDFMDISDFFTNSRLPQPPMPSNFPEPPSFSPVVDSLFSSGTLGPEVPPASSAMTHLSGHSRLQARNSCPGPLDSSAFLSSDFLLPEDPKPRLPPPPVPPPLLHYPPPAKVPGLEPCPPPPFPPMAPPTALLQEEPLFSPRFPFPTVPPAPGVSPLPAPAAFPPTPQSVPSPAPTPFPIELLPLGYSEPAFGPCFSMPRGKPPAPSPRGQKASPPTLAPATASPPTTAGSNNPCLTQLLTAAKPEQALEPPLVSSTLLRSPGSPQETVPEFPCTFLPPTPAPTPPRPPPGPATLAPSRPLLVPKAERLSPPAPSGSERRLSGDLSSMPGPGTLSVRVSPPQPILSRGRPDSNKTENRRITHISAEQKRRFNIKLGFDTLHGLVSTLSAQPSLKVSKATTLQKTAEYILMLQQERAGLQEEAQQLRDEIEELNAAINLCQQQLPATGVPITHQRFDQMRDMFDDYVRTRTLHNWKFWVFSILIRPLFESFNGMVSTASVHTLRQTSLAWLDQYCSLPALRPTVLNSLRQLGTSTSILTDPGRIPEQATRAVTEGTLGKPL
UniProt Q9UBG0: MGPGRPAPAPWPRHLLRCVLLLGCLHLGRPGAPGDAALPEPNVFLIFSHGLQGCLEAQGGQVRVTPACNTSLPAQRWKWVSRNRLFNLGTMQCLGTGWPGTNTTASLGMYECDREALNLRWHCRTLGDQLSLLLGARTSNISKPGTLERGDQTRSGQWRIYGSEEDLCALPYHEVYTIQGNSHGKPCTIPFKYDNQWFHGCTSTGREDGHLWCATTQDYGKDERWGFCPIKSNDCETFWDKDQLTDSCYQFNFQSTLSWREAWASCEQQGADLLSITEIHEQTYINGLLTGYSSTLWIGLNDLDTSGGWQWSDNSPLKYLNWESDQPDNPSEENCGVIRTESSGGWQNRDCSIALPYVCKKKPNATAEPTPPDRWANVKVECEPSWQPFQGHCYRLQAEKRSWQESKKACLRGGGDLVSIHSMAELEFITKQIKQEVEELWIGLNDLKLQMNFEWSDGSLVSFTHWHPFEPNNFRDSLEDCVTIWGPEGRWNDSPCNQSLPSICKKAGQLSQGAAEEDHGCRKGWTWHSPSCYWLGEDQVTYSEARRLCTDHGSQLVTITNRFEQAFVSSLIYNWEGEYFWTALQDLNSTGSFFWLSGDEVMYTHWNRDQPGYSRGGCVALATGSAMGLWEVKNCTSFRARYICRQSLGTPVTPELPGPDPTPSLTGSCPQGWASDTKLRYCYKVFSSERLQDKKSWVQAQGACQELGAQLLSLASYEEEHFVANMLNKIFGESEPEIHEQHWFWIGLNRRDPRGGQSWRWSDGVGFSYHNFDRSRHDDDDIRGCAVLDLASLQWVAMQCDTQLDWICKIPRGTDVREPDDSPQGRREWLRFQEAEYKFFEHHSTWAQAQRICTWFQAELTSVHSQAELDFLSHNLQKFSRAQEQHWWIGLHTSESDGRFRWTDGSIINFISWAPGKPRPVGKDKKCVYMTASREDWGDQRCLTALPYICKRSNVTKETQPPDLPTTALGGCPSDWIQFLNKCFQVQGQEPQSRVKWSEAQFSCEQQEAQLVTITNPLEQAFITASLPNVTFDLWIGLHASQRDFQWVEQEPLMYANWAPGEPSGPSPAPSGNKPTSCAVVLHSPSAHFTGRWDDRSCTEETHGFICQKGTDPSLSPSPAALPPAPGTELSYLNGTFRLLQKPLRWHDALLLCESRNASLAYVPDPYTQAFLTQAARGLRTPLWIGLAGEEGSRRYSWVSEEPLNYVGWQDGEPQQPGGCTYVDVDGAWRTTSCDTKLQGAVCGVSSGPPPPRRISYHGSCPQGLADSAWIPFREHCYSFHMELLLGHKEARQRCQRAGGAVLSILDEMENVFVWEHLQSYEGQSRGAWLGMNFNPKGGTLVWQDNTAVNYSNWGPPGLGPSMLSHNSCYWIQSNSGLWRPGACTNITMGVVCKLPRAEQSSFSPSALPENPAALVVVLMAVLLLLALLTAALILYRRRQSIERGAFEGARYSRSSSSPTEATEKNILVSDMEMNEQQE
UniProt Q8NBR6: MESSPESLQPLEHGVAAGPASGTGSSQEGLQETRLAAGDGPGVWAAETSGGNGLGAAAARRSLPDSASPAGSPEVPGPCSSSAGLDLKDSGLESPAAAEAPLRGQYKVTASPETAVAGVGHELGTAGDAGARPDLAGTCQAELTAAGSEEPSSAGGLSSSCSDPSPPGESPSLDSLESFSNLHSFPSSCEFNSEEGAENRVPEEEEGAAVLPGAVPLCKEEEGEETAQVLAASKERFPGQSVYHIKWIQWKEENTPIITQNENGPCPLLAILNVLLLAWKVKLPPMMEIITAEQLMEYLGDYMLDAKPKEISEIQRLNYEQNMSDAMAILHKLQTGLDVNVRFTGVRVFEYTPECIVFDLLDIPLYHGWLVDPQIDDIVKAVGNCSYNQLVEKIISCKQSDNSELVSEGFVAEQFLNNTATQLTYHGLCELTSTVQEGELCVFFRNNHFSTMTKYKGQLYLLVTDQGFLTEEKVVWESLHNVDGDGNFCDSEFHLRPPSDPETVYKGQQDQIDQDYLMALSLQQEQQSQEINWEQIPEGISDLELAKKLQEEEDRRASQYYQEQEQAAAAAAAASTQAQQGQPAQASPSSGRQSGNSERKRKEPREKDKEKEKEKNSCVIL
UniProt O60291: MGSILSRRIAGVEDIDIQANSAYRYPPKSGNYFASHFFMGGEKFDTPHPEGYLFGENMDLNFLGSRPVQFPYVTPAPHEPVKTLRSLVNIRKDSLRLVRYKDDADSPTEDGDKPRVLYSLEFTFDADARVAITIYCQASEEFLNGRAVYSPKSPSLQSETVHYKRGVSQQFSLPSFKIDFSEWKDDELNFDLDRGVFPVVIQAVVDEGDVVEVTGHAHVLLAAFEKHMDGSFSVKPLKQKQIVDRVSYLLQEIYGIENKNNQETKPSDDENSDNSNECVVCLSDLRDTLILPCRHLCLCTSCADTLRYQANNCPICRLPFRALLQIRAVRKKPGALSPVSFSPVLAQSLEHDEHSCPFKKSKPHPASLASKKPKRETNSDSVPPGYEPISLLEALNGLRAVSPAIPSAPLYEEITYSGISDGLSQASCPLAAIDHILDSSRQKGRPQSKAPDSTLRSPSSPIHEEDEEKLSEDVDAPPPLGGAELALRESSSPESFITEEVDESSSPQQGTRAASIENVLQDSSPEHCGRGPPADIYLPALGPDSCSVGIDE
UniProt O96033: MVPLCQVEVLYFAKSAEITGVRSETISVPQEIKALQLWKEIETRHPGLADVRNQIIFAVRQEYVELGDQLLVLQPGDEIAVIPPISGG
UniProt Q7L4E1: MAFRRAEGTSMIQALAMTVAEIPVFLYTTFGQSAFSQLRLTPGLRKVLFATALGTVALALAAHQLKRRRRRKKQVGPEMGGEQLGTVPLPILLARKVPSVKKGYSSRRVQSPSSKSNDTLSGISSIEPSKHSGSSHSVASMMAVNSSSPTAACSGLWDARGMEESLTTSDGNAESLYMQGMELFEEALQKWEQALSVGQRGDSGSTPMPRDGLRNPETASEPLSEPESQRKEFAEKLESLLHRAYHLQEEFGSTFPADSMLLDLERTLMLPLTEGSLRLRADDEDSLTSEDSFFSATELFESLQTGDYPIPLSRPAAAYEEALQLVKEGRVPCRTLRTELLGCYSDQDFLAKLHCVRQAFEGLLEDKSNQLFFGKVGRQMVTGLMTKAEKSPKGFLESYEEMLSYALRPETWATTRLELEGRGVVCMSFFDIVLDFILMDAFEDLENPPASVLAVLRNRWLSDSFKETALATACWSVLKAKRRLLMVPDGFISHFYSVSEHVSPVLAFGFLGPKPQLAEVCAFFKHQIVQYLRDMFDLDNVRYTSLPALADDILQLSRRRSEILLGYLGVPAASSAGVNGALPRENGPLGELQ
UniProt Q9HBH9: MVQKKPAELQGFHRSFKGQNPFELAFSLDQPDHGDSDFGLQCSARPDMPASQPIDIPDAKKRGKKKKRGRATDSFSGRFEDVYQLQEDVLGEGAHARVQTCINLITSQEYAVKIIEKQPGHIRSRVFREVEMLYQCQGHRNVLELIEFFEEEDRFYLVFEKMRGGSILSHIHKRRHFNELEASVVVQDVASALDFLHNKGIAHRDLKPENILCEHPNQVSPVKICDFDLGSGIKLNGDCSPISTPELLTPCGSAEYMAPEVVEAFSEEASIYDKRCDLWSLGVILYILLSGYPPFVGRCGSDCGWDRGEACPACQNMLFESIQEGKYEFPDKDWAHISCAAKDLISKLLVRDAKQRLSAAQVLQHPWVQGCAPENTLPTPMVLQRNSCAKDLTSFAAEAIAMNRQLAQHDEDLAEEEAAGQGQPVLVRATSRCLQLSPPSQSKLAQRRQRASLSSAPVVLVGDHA
UniProt Q8N3R9: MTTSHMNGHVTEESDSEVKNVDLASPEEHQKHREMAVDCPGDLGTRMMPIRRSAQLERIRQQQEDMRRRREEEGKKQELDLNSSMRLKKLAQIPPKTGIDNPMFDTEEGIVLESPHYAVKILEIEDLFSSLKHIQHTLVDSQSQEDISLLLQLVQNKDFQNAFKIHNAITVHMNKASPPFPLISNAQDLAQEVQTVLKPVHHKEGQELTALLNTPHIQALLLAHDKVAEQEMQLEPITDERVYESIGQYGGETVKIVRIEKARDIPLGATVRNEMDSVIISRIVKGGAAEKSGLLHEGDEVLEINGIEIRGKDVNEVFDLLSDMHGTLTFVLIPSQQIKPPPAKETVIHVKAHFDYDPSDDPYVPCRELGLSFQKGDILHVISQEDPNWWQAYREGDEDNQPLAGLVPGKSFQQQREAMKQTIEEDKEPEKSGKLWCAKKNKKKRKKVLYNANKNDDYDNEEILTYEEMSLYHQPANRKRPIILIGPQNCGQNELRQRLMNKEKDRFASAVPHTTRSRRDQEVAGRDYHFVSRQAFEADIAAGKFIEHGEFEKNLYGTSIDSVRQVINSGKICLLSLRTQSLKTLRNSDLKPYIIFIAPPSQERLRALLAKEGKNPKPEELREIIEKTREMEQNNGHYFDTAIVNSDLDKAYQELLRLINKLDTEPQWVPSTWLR

What was measured:
Assay in all cases: log2 fold change, soluble protein after heating vs DMSO (PISA); higher = thermal stabilisation; K562 lysate, 10 uM; active = over 0.2 and 3.5 SD of the protein, either way, in both replicates (recomputed)
[1] = compound: C=CC(=O)N1CCC[C@@H](n2nc(-c3ccc(Oc4ccccc4)cc3)c3c(N)ncnc32)C1 [ibrutinib]
In short: (§1)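 A 30 min treatment with 10 μM compound was applied to crude K562 extract at 1 mg/mL protein in PBS pH 7.4 with 1 mM MgCl2. Heating for 3 min spanned 48°C-58°C, after which aliquots were pooled, adjusted to 0.5% NP-40 at 4°C and spun at 21,000xg for 90 min. TMTpro 16plex LC-MS/MS of the supernatant, with channel sums equalised, gave values recorded as log-two fold change in thermal stability against solvent controls, from duplicates.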

[2] = compound: CC(C)C1=C2N=C(C=C(N2N=C1)NCC3=CC=CC=C3)NCCCCCCN
In short: as §1

[3] = compound: CC1=C(C=C(C=C1)NC(=O)C2=CC(=CC=C2)C(C)(C)C#N)NC3=CC4=C(C=C3)N=CN(C4=O)C
In short: as §1

[4] = compound: CC(C)(C)Cn1c(N)nc2ccc(-c3[nH]c(C(C)(C)C)nc3-c3ccc(F)cc3)nc21 [ralimetinib]
In short: as §1

[5] = compound: CC(C)(O)CC(=O)NCCn1ccc2ncnc(Nc3ccc(Oc4cccc(C(F)(F)F)c4)c(Cl)c3)c21
In short: as §1

[6] = compound: CC1=C(C=C(C=C1)NC(=O)C2=CC(=CC=C2)N(C)C)NC(=O)C3=CC=C(C=C3)O
In short: as §1

[7] = compound: CC(=O)c1cnc2ccc(-c3cc(Cl)c(O)c(Cl)c3)nc2c1N[C@H]1CC[C@H](CN(C)C)CC1
In short: as §1

[8] = compound: CC1=C(C2=C(C=C1)C(=O)C3=CC=CC=C3N2CCCN)C
In short: as §1

[9] = compound: CC1=CC=C(C=C1)SC2=C3C=C(SC3=CN=C2)C(=O)N
In short: as §1

[10] = compound: CC1=C(C(CC(=O)N1)C2=CC=C(C=C2)C(F)(F)F)C(=O)NC3=C(C=C4C(=C3)C=NN4)F
In short: as §1

Measured: log2 fold change

MPHOSPH9 (UniProt Q99550)
inactive: [1] 0.001 | [2] 0.123 | [3] -0.087

MLXIPL (UniProt Q9NP71)
inactive: [4] 0.137 | [5] 0.075 | [2] 0.097 | [3] -0.06 | [6] -0.097

MIDEAS, A0A1C7CYX1
inactive: [7] 0 | [4] -0.004 | [5] 0.044 | [2] -0.124 | [8] 0.15 | [3] -0.23 | [6] -0.22 | [9] 0.012

MPDZ (UniProt O75970)
inactive: [7] 0.264 | [4] 0.024 | [5] -0.157 | [2] -0.015 | [10] -0.173 | [8] 0.062 | [3] 0.057 | [6] 0.076 | [9] -0.029

MRPL18 (UniProt Q9H0U6)
inactive: [7] -0.066 | [4] -0.044 | [5] -0.064 | [10] 0.127 | [8] -0.037 | [3] -0.013 | [6] 0.065 | [9] -0.029

MKKS (UniProt Q9HB66)
inactive: [7] 0.011 | [4] 0.107 | [5] -0.012 | [2] -0.011 | [6] -0.037 | [9] 0

MPC1 (UniProt Q9Y5U8)
inactive: [1] -0.089 | [7] -0.026 | [4] 0.077 | [5] -0.075 | [2] 0.066 | [8] -0.039 | [3] 0.009 | [6] 0.01 | [9] -0.041

MGAT1 (UniProt P26572)
inactive: [7] -0.038 | [4] 0.069 | [5] -0.023 | [2] -0.022 | [10] 0.14 | [8] 0.061 | [3] -0.027 | [6] -0.058 | [9] -0.013

MRC2 (UniProt Q9UBG0)
inactive: [2] -0.015 | [10] 0.002 | [8] 0.03 | [3] 0.133

MINDY2 (UniProt Q8NBR6)
inactive: [1] 0.054 | [7] 0.043 | [4] 0.023 | [5] -0.023 | [10] 0.006 | [3] -0.039 | [6] 0.109 | [9] -0.04

MRE11 (UniProt F8W7U8)
inactive: [7] 0.007 | [9] -0.074

MRAS (UniProt O14807)
inactive: [1] 0.047 | [7] -0.019 | [2] -0.044 | [10] 0.035 | [8] -0.374 | [3] -0.032 | [9] 0.049

MIIP (UniProt Q5JXC2)
inactive: [1] 0.09 | [4] -0.083 | [5] 0.052 | [2] 0.037 | [3] 0.013 | [6] 0.061

MID1IP1 (UniProt Q9NPA3)
inactive: [1] 0.035 | [4] -0.054 | [5] 0.051 | [2] -0.024 | [10] 0.047 | [8] -0.005 | [3] 0.023 | [6] -0.084

MGRN1 isoform 2 (UniProt O60291)
inactive: [1] -0.111 | [7] 0.093 | [2] 0 | [8] -0.127 | [3] -0.066 | [9] 0.049

MPZL3 (UniProt Q6UWV2)
inactive: [4] -0.105 | [5] 0.057 | [6] 0.022

MROH1 (UniProt Q8NDA8)
inactive: [1] -0.025 | [4] -0.064 | [5] -0.13 | [8] -0.019 | [3] 0.162 | [6] 0

MISP3 (UniProt Q96FF7)
inactive: [7] -0.184 | [10] -0.256 | [8] -0.072 | [9] -0.071

MMACHC (UniProt Q9Y4U1)
inactive: [1] 0.025 | [4] -0.038 | [5] 0.021 | [10] 0.103 | [8] -0.188 | [6] -0.149

MNT (UniProt Q99583)
inactive: [7] -0.05 | [4] 0.038 | [5] -0.035 | [2] 0.026 | [8] -0.215 | [3] 0.024 | [6] 0.048 | [9] -0.017

MRPL22 (UniProt Q9NWU5)
inactive: [7] 0.001 | [4] 0.018 | [5] -0.033 | [2] 0.058 | [10] 0.001 | [3] -0.017 | [6] 0.051 | [9] 0.069

MNX1 (UniProt P50219)
inactive: [1] 0.114 | [7] 0.024 | [4] 0.004 | [5] 0.046 | [2] 0.01 | [8] -0.007 | [3] -0.106 | [6] -0.029 | [9] -0.082

MKKS (UniProt Q9NPJ1)
inactive: [1] 0.038 | [8] -0.008

Copied from the entries so far (2 entries):
MMACHC (UniProt Q9Y4U1)
inactive: [1] 0.025 | [4] -0.038 | [5] 0.021 | [10] 0.103 | [8] -0.188 | [6] -0.149

MNT (UniProt Q99583)
inactive: [7] -0.05 | [4] 0.038 | [5] -0.035 | [2] 0.026 | [8] -0.215 | [3] 0.024 | [6] 0.048 | [9] -0.017

Continuation:

MINDY4 (UniProt Q4G0A6)
inactive: [1] 0.146 | [4] -0.01 | [5] 0.04 | [10] 0.094 | [8] 0.148 | [6] 0.198

MOCS2 (UniProt O96033)
inactive: [7] 0.065 | [4] -0.193 | [5] 0.126 | [8] -0.032 | [3] -0.072 | [6] 0.172 | [9] -0.031

MIGA2 (UniProt Q7L4E1)
inactive: [4] -0.008 | [5] -0.065 | [2] -0.016 | [8] 0.038 | [6] 0.061

MMS22L (UniProt Q6ZRQ5)
inactive: [1] -0.025 | [7] 0.049 | [2] -0.085 | [10] 0.007 | [8] -0.042 | [3] -0.049 | [9] 0.007

MILR1 (UniProt Q7Z6M3)
inactive: [4] -0.083 | [5] -0.059 | [2] 0.212 | [3] 0.023 | [6] 0.065

MKNK2 (UniProt Q9HBH9)
inactive: [4] 0.027 | [5] -0.166 | [2] 0.017 | [10] 0.087 | [8] 0.109 | [6] 0.092

MGMT (UniProt P16455)
inactive: [4] -0.016 | [5] 0.064 | [8] 0.09 | [6] 0.115

MIPOL1 (UniProt Q8TD10)
inactive: [1] 0.099 | [7] 0.175 | [4] -0.032 | [5] -0.022 | [2] -0.067 | [8] -0.068 | [3] 0.046 | [6] 0.05 | [9] -0.064

MPHOSPH8 (UniProt Q99549)
inactive: [1] 0.176 | [7] -0.059 | [4] -0.082 | [5] -0.055 | [2] -0.212 | [8] 0.009 | [3] 0.074 | [6] 0.044 | [9] -0.051

MPP5 (UniProt Q8N3R9)
inactive: [1] 0 | [4] 0.019 | [5] -0.063 | [2] -0.079 | [10] -0.082 | [8] -0.067 | [3] 0.017 | [6] 0.014
